For the assay, the target named is Flag-tagged YTHDF1 (YTH domain family protein 1) (UniProt Q9BYJ9). The assay is described as follows: affinity purification with mass spectrometry; Flag-YTHDF1 stably overexpressed in T24 cells, immunoprecipitated with a Flag antibody, IgG as control, LC-MS/MS.

Protein sequences, listed by entry. Tags and fused reporters are not part of them.
UniProt Q9BYJ9: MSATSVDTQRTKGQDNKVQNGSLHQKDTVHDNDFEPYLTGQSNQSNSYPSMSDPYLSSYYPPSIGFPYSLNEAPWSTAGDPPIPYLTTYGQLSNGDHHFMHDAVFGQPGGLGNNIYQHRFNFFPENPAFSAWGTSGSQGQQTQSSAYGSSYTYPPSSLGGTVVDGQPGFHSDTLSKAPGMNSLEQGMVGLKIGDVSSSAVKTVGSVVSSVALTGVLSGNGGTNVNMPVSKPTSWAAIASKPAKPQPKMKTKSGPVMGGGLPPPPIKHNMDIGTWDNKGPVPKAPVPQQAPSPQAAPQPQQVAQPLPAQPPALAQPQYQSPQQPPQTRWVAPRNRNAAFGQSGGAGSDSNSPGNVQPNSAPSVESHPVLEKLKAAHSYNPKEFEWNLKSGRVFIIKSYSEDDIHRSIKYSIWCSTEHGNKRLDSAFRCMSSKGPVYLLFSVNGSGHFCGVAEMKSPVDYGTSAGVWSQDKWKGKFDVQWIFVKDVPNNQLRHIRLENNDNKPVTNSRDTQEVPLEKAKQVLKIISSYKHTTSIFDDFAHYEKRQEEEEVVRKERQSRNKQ

These are yes or no findings as the source states them, for the method shown. In cells and extracts the contact can be indirect. A yes stands for co-enrichment or nearness to the bait. Other partners may have been found.

B1: eukaryotic translation initiation factor eIF5B (protein, UniProt O60841 1-1220)
chain: MGKKQKNKSEDSTKDDIDLDALAAEIEGAGAAKEQEPQKSKGKKKKEKKKQDFDEDDILKELEELSLEAQGIKADRETVAVKPTENNEEEFTSKDKKKKGQKGKKQSFDDNDSEELEDKDSKSKKTAKPKVEMYSGSDDDDDFNKLPKKAKGKAQKSNKKWDGSEEDEDNSKKIKERSRINSSGESGDESDEFLQSRKGQKKNQKNKPGPNIESGNEDDDASFKIKTVAQKKAEKKERERKKRDEEKAKLRKLKEKEELETGKKDQSKQKESQRKFEEETVKSKVTVDTGVIPASEEKAETPTAAEDDNEGDKKKKDKKKKKGEKEEKEKEKKKGPSKATVKAMQEALAKLKEEEERQKREEEERIKRLEELEAKRKEEERLEQEKRERKKQKEKERKERLKKEGKLLTKSQREARARAEATLKLLQAQGVEVPSKDSLPKKRPIYEDKKRKKIPQQLESKEVSESMELCAAVEVMEQGVPEKEETPPPVEPEEEEDTEDAGLDDWEAMASDEETEKVEGNKVHIEVKENPEEEEEEEEEEEEDEESEEEEEEEGESEGSEGDEEDEKVSDEKDSGKTLDKKPSKEMSSDSEYDSDDDRTKEERAYDKAKRRIEKRRLEHSKNVNTEKLRAPIICVLGHVDTGKTKILDKLRHTHVQDGEAGGITQQIGATNVPLEAINEQTKMIKNFDRENVRIPGMLIIDTPGHESFSNLRNRGSSLCDIAILVVDIMHGLEPQTIESINLLKSKKCPFIVALNKIDRLYDWKKSPDSDVAATLKKQKKNTKDEFEERAKAIIVEFAQQGLNAALFYENKDPRTFVSLVPTSAHTGDGMGSLIYLLVELTQTMLSKRLAHCEELRAQVMEVKALPGMGTTIDVILINGRLKEGDTIIVPGVEGPIVTQIRGLLLPPPMKELRVKNQYEKHKEVEAAQGVKILGKDLEKTLAGLPLLVAYKEDEIPVLKDELIHELKQTLNAIKLEEKGVYVQASTLGSLEALLEFLKTSEVPYAGINIGPVHKKDVMKASVMLEHDPQYAVILAFDVRIERDAQEMADSLGVRIFSAEIIYHLFDAFTKYRQDYKKQKQEEFKHIAVFPCKIKILPQYIFNSRDPIVMGVTVEAGQVKQGTPMCVPSKNFVDIGIVTSIEINHKQVDVAKKGQEVCVKIEPIPGESPKMFGRHFEATDILVSKISRQSIDALKDWFRDEMQKSDWQLIVELKKVFEII
Regarding B1, the binding entry was “binds”.

The values above are taken from publication PMC11982326.
